Laboratory results published in patent publication US20260209345A1 (IOMX THERAPEUTICS, published 2026).
Results are given in words; binding and its absence hold for the method and conditions named. Some binding calls cover weakened binding; strength is not graded here.

Sequences of proteins named here, by UniProt entry; tags and fusion partners are left off. A change or cut given only in a name is not applied to a line headed by its entry.
UniProt Q8N6C8: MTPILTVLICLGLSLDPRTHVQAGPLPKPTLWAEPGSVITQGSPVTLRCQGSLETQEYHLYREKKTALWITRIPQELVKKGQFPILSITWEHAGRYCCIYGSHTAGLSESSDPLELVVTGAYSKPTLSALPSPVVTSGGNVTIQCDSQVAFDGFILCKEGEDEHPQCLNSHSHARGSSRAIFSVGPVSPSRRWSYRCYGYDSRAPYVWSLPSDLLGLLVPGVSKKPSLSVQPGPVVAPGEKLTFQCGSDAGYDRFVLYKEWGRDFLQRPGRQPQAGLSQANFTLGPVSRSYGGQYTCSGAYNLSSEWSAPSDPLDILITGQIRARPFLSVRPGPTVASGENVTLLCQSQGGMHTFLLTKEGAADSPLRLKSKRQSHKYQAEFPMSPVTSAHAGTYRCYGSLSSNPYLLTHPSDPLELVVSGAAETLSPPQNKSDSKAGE

Target: LILRA3 on transiently transfected Expi293 cells (human) (UniProt Q8N6C8)
Assay: flow cytometry, transfected Expi293 cells

B1: A-045 (antibody, V domains shown)
VH: QVQLVQSGAEVKKPGSSVKVSCKASGGTFQSQAFAWVRQAPGQGLEWMGSIIPGFSTANYAQKFQGRVTITADESTSTAYMELSSLRSEDTAVYYCAKDLGTYSSGWPYYYGMDVWGQGTTVTVSS
VL: SYELTQPPSVSVSPGQTASITCSGDKLGDKYASWYQQKPGQSPVLVIYQDSKRPSGIPERFSGSNSGNTATLTISGTQAEDEADYYCQLTHLTIYVFGGGTKLTVL
notes: tested as IgG; HC of A-010 and LC of A-036
binding: binds
